Results reported in paper PMC6799934.

By UniProt entry, the sequences of proteins in these tests, tags left out. Where a name states a change or a piece, a line headed by the entry shows the natural chain unless it says otherwise.
UniProt D9N195: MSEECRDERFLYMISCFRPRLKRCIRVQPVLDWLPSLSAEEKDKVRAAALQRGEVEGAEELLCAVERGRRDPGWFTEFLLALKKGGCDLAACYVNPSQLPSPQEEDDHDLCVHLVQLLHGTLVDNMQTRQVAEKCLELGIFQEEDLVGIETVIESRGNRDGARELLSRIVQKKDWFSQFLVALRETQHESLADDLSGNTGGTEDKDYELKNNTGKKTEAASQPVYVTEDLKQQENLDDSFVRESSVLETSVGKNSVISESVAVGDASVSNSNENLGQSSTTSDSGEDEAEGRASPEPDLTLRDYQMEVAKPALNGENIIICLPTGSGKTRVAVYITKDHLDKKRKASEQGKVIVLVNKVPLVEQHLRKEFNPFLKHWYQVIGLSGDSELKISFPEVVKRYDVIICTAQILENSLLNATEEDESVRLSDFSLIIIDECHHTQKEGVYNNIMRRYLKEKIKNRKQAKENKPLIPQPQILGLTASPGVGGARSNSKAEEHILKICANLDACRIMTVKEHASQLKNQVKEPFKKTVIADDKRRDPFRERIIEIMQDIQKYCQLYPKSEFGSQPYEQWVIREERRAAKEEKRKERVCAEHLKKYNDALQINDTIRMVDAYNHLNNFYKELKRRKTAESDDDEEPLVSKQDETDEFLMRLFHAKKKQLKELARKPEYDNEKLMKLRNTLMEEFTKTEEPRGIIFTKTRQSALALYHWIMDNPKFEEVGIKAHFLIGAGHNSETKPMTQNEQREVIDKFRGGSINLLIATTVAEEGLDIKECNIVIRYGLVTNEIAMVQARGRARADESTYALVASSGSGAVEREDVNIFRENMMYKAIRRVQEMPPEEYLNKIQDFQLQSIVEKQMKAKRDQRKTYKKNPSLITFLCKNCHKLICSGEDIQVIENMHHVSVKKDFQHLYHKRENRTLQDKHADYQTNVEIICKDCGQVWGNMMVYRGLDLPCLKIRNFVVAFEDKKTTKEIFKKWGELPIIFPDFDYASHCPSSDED

Experiments:
[1] = biological target: T1, STING-Flag (chicken STING), expressed in DF-1 (chicken) (UniProt E1C7U0); assay: co-IP; DF-1 cells cotransfected with tagged plasmids for 36 h, with or without Meq; lysed in ice-cold Pierce IP buffer; antibodies at 4 °C overnight, Protein G Sepharose 6 h, six washes with PBS; immunoblot
T1 sequence: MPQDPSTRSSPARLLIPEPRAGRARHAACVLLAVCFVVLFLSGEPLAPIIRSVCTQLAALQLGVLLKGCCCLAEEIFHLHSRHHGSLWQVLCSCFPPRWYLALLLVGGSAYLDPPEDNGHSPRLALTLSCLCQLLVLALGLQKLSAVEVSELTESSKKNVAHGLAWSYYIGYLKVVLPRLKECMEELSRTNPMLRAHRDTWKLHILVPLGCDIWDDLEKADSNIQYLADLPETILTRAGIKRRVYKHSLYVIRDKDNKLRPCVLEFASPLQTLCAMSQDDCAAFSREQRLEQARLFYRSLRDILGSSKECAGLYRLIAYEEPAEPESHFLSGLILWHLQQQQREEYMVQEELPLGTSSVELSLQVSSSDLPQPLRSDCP

[2] = biological target: T2, STING-HA (chicken STING) (chicken) (UniProt E1C7U0); assay: co-IP; HEK293T cells cotransfected with tagged plasmids for 36 h; lysed in ice-cold Pierce IP buffer with protease inhibitors; antibodies at 4 °C overnight, Protein G Sepharose 6 h, six washes with PBS; immunoblot
T2 sequence: T1 sequence

GST-STING (chicken) = biological target: T3, GST-STING (chicken) (UniProt E1C7U0); assay: pull-down; GST-STING or GST-IRF7 bound to glutathione agarose beads, incubated 4 h at 4 °C with lysates of HEK293T cells transiently expressing Meq-Flag; five washes with NP-40 lysis buffer; Coomassie staining and/or immunoblot; only the target purified
T3 sequence: T1 sequence

[3] = biological target: T4, STING, endogenous in CEFs (chicken (endogenous in CEFs)) (UniProt E1C7U0); assay: co-IP; endogenous proteins from CEFs left uninfected or infected with MDV (Fig 5D); CEFs mock infected or infected with MDV-WT or MDV-dMeq and then transfected with ISD for 12 h (Fig 6C); immunoprecipitation and immunoblot with the indicated antibodies
T4 sequence: T1 sequence

| Substance | binding [1] | also measured |
| --- | --- | --- |
| IKKβ-HA (chicken IκB kinase β) | binds | – |
| Meq-Myc (Marek's disease virus (MDV), GA strain) | binds | – |
| TBK1 (chicken), expressed in DF-1 | binds | – |
| C-terminal transactivation domain of Meq (aa 122-339) (Marek's disease virus (MDV), GA strain) (domain or fragment) | – | binding [2]: binds |
| MDA5-HA (chicken melanoma differentiation-associated gene 5) (from UniProt D9N195) | binds | – |
| Meq-Flag (MDV oncoprotein Meq, full length) (Marek's disease virus (MDV), GA strain) | – | binding [2]: binds; binding (GST-STING (chicken)): binds |
| Meq expressed in MDV-infected CEFs (Marek's disease virus (MDV), GA strain) | – | binding [3]: binds |

No constants are given. Whether binding was seen depends on the method and setting. In cells and extracts the contact can be indirect. Binding can be weak; no strength is given. For some assays here: Sequences can lack the tags named with a protein.
